The supplement of paper PMC10849652
The other results are listed elsewhere or left out.

Amino acid sequences for entries named in this document (tags omitted). A change or cut given only in a name is not applied to a line headed by its entry.
UniProt Q9BQE4, whole entry, looked up: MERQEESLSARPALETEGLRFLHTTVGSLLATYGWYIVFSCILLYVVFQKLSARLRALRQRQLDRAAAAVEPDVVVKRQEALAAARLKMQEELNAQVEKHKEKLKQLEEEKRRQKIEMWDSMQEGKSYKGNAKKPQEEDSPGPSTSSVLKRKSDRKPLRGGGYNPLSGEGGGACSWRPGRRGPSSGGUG
UniProt Q9NVA2: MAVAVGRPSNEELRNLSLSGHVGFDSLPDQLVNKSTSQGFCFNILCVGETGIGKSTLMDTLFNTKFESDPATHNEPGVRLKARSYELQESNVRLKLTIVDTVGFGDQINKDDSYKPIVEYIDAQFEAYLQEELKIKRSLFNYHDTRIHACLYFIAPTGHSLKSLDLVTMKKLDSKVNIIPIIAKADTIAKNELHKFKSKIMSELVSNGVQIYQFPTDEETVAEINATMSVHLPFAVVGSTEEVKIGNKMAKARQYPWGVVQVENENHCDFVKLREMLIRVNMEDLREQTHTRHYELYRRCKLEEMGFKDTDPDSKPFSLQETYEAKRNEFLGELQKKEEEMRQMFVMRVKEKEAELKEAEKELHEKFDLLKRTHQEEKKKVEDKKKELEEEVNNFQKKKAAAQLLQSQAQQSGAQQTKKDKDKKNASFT
UniProt Q8TD22: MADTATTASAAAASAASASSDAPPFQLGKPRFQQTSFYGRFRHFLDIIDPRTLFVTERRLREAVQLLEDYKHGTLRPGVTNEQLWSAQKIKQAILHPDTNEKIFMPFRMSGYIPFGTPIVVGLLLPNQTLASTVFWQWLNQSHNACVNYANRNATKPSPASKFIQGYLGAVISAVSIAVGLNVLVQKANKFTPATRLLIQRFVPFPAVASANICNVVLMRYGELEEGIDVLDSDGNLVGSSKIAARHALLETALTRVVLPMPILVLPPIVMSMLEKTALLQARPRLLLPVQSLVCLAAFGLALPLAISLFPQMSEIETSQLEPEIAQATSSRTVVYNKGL
UniProt Q9NR46: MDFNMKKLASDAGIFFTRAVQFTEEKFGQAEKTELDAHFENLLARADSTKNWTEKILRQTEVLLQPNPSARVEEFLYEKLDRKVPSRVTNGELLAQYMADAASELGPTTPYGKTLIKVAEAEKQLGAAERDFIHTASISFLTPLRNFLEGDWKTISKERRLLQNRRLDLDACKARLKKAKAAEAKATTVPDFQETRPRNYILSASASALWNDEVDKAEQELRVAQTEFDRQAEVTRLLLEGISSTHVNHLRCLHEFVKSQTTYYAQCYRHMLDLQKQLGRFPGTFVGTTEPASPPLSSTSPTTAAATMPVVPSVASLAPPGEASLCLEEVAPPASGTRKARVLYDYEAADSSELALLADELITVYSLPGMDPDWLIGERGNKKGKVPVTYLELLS
UniProt Q8IZQ5, whole entry, looked up: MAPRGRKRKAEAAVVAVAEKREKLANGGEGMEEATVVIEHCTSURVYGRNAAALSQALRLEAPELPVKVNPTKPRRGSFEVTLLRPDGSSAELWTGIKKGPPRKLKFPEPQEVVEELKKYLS
UniProt A0MZ66, whole entry, looked up: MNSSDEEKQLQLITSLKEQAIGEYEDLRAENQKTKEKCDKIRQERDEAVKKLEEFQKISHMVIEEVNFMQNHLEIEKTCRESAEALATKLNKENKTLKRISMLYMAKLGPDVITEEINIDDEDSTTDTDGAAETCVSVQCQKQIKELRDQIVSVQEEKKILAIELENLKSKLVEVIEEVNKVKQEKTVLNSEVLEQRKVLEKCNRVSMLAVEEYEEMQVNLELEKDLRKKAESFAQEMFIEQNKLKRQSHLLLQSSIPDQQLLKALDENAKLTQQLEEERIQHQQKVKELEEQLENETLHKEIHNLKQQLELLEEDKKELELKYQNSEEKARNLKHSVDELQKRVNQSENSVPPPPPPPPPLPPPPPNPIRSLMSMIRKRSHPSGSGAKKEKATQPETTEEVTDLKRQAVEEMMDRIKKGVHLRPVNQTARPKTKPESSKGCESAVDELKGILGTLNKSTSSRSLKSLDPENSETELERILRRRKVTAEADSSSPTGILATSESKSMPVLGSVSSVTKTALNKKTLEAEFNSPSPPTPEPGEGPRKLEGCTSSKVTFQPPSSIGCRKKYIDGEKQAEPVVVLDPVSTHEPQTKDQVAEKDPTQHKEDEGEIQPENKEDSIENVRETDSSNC
UniProt Q96EQ0: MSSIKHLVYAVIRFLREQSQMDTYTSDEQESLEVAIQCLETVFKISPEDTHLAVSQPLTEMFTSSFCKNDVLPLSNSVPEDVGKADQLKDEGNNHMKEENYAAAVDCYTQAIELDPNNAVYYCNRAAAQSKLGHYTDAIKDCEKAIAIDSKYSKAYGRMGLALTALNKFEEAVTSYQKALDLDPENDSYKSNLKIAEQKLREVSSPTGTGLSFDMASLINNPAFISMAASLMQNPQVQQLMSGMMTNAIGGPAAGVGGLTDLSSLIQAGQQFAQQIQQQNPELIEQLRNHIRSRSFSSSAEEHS
UniProt Q96EE3: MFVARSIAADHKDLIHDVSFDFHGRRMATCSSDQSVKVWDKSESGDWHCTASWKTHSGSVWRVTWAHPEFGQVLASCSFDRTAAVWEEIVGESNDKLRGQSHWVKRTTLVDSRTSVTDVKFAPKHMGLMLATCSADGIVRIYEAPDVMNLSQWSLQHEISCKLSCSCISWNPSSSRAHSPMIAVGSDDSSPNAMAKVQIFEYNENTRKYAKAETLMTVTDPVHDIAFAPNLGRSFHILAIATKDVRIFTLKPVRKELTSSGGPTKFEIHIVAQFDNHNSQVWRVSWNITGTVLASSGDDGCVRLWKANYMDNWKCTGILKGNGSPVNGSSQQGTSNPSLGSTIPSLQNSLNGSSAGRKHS
UniProt Q99720, whole entry, looked up: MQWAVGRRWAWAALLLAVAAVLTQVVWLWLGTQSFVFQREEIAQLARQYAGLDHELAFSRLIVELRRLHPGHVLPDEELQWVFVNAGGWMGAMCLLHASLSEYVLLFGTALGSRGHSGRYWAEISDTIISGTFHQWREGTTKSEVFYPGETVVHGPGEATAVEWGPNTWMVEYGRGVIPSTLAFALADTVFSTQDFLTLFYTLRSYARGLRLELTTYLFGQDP
UniProt Q9UGP8: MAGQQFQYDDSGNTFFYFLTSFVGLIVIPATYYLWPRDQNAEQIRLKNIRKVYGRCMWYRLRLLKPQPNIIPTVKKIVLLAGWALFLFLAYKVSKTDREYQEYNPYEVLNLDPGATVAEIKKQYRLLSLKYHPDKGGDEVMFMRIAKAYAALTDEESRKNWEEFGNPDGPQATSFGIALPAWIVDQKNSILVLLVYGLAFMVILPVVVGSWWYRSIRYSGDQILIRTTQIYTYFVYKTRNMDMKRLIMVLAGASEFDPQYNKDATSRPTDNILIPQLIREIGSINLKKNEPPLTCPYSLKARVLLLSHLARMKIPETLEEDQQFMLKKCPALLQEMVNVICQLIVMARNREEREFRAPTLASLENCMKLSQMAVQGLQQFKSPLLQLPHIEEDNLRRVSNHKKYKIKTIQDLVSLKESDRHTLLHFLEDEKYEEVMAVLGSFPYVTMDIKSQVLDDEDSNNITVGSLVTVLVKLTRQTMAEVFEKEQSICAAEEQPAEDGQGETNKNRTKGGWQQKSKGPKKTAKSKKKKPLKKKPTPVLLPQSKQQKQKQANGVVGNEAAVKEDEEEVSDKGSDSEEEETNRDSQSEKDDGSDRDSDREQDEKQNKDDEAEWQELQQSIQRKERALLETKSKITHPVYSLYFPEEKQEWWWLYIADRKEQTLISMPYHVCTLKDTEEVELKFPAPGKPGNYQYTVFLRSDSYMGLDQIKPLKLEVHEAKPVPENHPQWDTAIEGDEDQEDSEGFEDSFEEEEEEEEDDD
UniProt Q15637: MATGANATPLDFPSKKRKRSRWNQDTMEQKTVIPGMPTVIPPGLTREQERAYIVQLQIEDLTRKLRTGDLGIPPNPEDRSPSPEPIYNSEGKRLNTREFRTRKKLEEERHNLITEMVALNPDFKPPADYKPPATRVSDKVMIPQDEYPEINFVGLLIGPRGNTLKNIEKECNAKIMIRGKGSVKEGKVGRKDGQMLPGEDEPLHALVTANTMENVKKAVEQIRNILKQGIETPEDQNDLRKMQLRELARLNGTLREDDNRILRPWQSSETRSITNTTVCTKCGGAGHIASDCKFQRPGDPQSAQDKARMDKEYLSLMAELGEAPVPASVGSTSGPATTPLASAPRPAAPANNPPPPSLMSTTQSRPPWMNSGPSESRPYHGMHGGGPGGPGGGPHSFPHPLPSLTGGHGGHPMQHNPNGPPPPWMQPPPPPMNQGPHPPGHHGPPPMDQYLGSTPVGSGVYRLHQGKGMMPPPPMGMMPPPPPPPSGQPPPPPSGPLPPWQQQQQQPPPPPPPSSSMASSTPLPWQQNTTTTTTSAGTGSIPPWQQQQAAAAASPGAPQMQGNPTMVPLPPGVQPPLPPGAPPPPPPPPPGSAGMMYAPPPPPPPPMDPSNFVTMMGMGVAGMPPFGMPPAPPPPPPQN
UniProt Q86TU7: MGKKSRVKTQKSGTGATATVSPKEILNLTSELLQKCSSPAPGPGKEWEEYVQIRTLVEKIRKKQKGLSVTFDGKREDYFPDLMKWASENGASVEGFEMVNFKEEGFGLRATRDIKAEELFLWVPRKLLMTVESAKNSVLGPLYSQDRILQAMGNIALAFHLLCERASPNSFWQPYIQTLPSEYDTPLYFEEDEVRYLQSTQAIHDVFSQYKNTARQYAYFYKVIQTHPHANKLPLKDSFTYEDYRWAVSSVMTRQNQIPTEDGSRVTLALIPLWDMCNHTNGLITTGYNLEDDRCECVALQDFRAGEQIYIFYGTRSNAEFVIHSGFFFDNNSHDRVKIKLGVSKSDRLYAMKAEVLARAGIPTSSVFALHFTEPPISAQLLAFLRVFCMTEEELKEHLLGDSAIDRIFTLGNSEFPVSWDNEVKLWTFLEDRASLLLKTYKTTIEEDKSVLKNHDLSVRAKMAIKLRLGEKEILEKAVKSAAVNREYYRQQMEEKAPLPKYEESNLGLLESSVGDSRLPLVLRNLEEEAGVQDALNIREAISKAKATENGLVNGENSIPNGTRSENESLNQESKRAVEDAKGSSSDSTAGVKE
UniProt P49903: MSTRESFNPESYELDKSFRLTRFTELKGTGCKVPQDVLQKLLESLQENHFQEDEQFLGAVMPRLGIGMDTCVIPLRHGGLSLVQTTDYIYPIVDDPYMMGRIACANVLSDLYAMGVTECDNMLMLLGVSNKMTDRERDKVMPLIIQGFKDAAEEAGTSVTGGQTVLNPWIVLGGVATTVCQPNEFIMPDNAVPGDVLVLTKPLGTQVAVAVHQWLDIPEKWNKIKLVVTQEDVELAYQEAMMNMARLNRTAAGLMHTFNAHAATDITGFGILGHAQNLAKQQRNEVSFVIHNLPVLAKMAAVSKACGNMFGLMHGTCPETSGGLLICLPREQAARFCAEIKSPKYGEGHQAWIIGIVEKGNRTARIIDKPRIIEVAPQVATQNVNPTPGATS
UniProt Q53H47: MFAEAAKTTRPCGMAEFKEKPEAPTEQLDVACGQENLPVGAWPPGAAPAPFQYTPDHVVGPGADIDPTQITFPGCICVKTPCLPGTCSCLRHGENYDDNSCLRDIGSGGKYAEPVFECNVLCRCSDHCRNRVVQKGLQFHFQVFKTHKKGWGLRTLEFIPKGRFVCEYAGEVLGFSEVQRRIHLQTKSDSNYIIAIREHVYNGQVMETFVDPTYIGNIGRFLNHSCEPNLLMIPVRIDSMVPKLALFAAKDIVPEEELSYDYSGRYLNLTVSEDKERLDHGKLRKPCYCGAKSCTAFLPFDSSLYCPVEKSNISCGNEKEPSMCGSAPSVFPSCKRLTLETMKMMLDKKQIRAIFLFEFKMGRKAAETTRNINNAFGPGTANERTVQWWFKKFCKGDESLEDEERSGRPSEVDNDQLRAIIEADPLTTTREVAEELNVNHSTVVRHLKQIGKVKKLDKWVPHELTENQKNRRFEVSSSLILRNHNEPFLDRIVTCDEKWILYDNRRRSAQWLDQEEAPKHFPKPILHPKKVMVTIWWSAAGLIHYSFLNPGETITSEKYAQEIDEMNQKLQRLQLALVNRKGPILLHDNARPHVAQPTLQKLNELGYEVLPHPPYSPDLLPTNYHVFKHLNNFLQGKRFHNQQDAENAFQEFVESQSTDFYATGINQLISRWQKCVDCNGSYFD

Columns and labels:
Experiment in all cases: log2 fold change, soluble protein after heating vs DMSO (PISA); higher = thermal stabilisation; K562 cells, 10 uM, 30 min; active = over 0.2 and 3.5 SD of the protein, either way, in both replicates (recomputed)
[1] = compound: COC1=CC=C(C=C1)CN2C=CC3=C2C=C(C=C3)C(=O)NO
In short: (§1)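 Values are thermal stability changes relative to control samples and are taken from duplicates. They are stated as log2 fold changes. Before quantification by TMTpro 16plex LC-MS/MS with equalised channel sums, K562 cells at 2×10^6 cells/mL were treated with 10 μM compound for 30 min, heated in aliquots for 3 min across 48°C-58°C, pooled, extracted in PBS with 0.5% NP-40 at 4°C, and centrifuged at 21,000xg for 90 min to give the soluble supernatant.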

filanesib = compound: CON(C)C(=O)N1N=C(c2cc(F)ccc2F)S[C@@]1(CCCN)c1ccccc1 [filanesib]
In short: as §1

zotarolimus = compound: CO[C@H]1C[C@@H]2CC[C@@H](C)[C@@](O)(O2)C(=O)C(=O)N2CCCC[C@H]2C(=O)O[C@H]([C@H](C)C[C@@H]2CC[C@H](n3cnnn3)[C@H](OC)C2)CC(=O)[C@H](C)/C=C(\C)[C@@H](O)[C@@H](OC)C(=O)[C@H](C)C[C@H](C)/C=C/C=C/C=C/1C [zotarolimus]
In short: as §1

idasanutlin = compound: COc1cc(C(=O)O)ccc1NC(=O)[C@@H]1N[C@@H](CC(C)(C)C)[C@](C#N)(c2ccc(Cl)cc2F)[C@H]1c1cccc(Cl)c1F [idasanutlin]
In short: as §1

alisertib = compound: COc1cc(Nc2ncc3c(n2)-c2ccc(Cl)cc2C(c2c(F)cccc2OC)=NC3)ccc1C(=O)O [alisertib]
In short: as §1

[2] = compound: COc1cc2nc(-c3cc(F)ccc3O)nc(N[C@@H]3CNC[C@H]3C(C)(C)O)c2cc1OC
In short: as §1

gefitinib = compound: COc1cc2ncnc(Nc3ccc(F)c(Cl)c3)c2cc1OCCCN1CCOCC1 [gefitinib]
In short: as §1

[3] = compound: COc1cccc2cc(-c3nc([C@H]4CC[C@H](C(=O)O)CC4)n4ncnc(N)c34)[nH]c12
In short: as §1

lapatinib = compound: CS(=O)(=O)CCNCc1ccc(-c2ccc3ncnc(Nc4ccc(OCc5cccc(F)c5)c(Cl)c4)c3c2)o1 [lapatinib]
In short: as §1

pictilisib = compound: CS(=O)(=O)N1CCN(Cc2cc3nc(-c4cccc5[nH]ncc45)nc(N4CCOCC4)c3s2)CC1 [pictilisib]
In short: as §1

[4] = compound: CS(=O)(=O)c1ccc(-c2cnc(N)c(C(=O)Nc3ccccc3)n2)cc1
In short: as §1

crizotinib = compound: C[C@@H](Oc1cc(-c2cnn(C3CCNCC3)c2)cnc1N)c1c(Cl)ccc(F)c1Cl [crizotinib]
In short: as §1

[5] = compound: C[C@@H]1COCCN1C2=NC(=NC(=C2)C3(CC3)S(=O)(=O)C)C4=C5C=CNC5=CC=C4
In short: as §1

[6] = compound: C[C@H](C1=CC=C(C=C1)C(=O)NC2=C3C=CNC3=NC=C2)N
In short: as §1

duvelisib = compound: C[C@H](Nc1ncnc2nc[nH]c12)c1cc2cccc(Cl)c2c(=O)n1-c1ccccc1 [duvelisib]
In short: as §1

gandotinib = compound: Cc1cc(Nc2cc(CN3CCOCC3)c3nc(C)c(Cc4ccc(Cl)cc4F)n3n2)n[nH]1 [gandotinib]
In short: as §1

tozasertib = compound: Cc1cc(Nc2cc(N3CCN(C)CC3)nc(Sc3ccc(NC(=O)C4CC4)cc3)n2)n[nH]1 [tozasertib]
In short: as §1

[7] = compound: Cc1cc(SCc2sc(-c3ccc(C(F)(F)F)cc3)nc2C)ccc1OCC(=O)O
In short: as §1

doramapimod = compound: Cc1ccc(-n2nc(C(C)(C)C)cc2NC(=O)Nc2ccc(OCCN3CCOCC3)c3ccccc23)cc1 [doramapimod]
In short: as §1

ispinesib = compound: Cc1ccc(C(=O)N(CCCN)[C@@H](c2nc3cc(Cl)ccc3c(=O)n2Cc2ccccc2)C(C)C)cc1 [ispinesib]
In short: as §1

Target | log2 fold change [1] | log2 fold change (filanesib) | log2 fold change (zotarolimus) | log2 fold change (idasanutlin) | log2 fold change (alisertib) | log2 fold change [2] | log2 fold change (gefitinib) | log2 fold change [3] | log2 fold change (lapatinib) | log2 fold change (pictilisib) | log2 fold change [4] | log2 fold change (crizotinib) | log2 fold change [5] | log2 fold change [6] | log2 fold change (duvelisib) | log2 fold change (gandotinib) | log2 fold change (tozasertib) | log2 fold change [7] | log2 fold change (doramapimod) | log2 fold change (ispinesib)
SELENOS (UniProt Q9BQE4) | inactive: 0.044 | inactive: -0.002 | inactive: 0.02 | inactive: 0.04 | inactive: -0.06 | inactive: -0.079 | inactive: 0.53 | inactive: 0.04 | inactive: -0.064 | inactive: -0.015 | inactive: -0.033 | inactive: 0.006 | inactive: -0.178 | inactive: -0.063 | inactive: 0.037 | inactive: -0.004 | inactive: -0.032 | inactive: 0.016 | inactive: 0.005 | inactive: 0.002
SLAIN2 (UniProt Q9P270) | inactive: 0.125 | inactive: 0.002 | inactive: -0.029 | inactive: 0.119 | inactive: -0.061 | inactive: -0.082 | inactive: 0.062 | inactive: 0.03 | inactive: 0.029 | inactive: -0.026 | inactive: -0.039 | inactive: -0.024 | inactive: 0.012 | inactive: -0.022 | inactive: -0.062 | inactive: -0.096 | inactive: -0.016 | inactive: 0.018 | inactive: 0.019 | inactive: -0.048
SEPTIN11 isoform 2 (UniProt Q9NVA2) | inactive: 0.003 | inactive: -0.005 | inactive: -0.024 | inactive: -0.004 | inactive: -0.057 | inactive: -0.006 | inactive: 0.003 | inactive: 0.039 | inactive: -0.064 | inactive: 0.045 | inactive: 0.024 | inactive: 0.034 | inactive: 0.01 | inactive: -0.024 | inactive: 0.022 | inactive: 0.006 | inactive: -0.051 | inactive: -0.089 | inactive: -0.032 | inactive: 0.022
SFXN5 (UniProt Q8TD22) | inactive: -0.104 | inactive: -0.007 | inactive: 0.025 | inactive: -0.172 | inactive: 0.027 | inactive: -0.019 | inactive: -0.013 | inactive: 0.035 | inactive: 0.017 | inactive: 0.061 | inactive: 0.144 | inactive: 0.021 | inactive: 0.073 | inactive: -0.137 | – | inactive: -0.026 | – | inactive: 0.076 | inactive: -0.055 | inactive: 0.049
SH3GLB2 (UniProt Q9NR46) | inactive: 0.016 | inactive: 0.085 | inactive: 0.052 | inactive: 0.061 | inactive: -0.011 | inactive: -0.034 | inactive: -0.004 | inactive: -0.018 | inactive: -0.04 | inactive: 0.025 | inactive: 0.031 | inactive: -0.104 | inactive: -0.101 | inactive: 0.013 | – | inactive: -0.183 | – | inactive: 0.073 | inactive: 0.013 | inactive: -0.052
SELENOH (UniProt Q8IZQ5) | inactive: 0.204 | inactive: -0.077 | inactive: 0.035 | inactive: 0.02 | inactive: -0.27 | inactive: -0.114 | inactive: -0.028 | inactive: -0.038 | inactive: 0.08 | inactive: -0.074 | inactive: -0.19 | inactive: 0 | inactive: -0.014 | inactive: -0.022 | – | inactive: -0.12 | – | inactive: -0.051 | inactive: -0.018 | inactive: 0.036
SHTN1 isoform 3 (UniProt A0MZ66) | inactive: -0.034 | inactive: 0.048 | inactive: 0.027 | inactive: 0.012 | inactive: 0.028 | inactive: 0.115 | inactive: 0.048 | inactive: 0.009 | inactive: 0.009 | inactive: 0.068 | inactive: 0.036 | inactive: 0.009 | inactive: -0.004 | inactive: 0.053 | inactive: 0.076 | inactive: 0.02 | inactive: 0.073 | inactive: -0.008 | inactive: 0.045 | inactive: -0.04
SGTB (UniProt Q96EQ0) | inactive: -0.061 | inactive: 0.011 | inactive: 0.003 | inactive: -0.019 | inactive: -0.023 | inactive: 0 | inactive: -0.014 | inactive: 0.005 | inactive: 0.012 | inactive: -0.095 | inactive: -0.012 | inactive: -0.011 | inactive: 0.021 | inactive: -0.091 | – | inactive: -0.01 | inactive: 0.038 | – | inactive: -0.007 | inactive: -0.004
SEH1L isoform 1 (UniProt Q96EE3) | inactive: -0.004 | inactive: 0.012 | inactive: -0.03 | inactive: -0.014 | inactive: -0.024 | inactive: 0.025 | inactive: 0.015 | inactive: 0.038 | inactive: -0.045 | inactive: 0.017 | inactive: -0.03 | inactive: 0.04 | inactive: -0.008 | inactive: -0.028 | – | inactive: -0.069 | – | inactive: 0.01 | inactive: 0.011 | inactive: 0.054
SIGMAR1 (UniProt Q99720) | inactive: -0.031 | inactive: -0.005 | inactive: -0.048 | inactive: -0.059 | inactive: -0.149 | inactive: -0.099 | inactive: 0.01 | inactive: 0.089 | inactive: -0.055 | inactive: -0.012 | inactive: -0.038 | inactive: 0.029 | inactive: -0.053 | inactive: 0.045 | inactive: 0.013 | inactive: 0.025 | inactive: 0.011 | inactive: -0.068 | inactive: 0.084 | inactive: 0.07
SEC63 (UniProt Q9UGP8) | inactive: 0.003 | inactive: -0.015 | inactive: 0.013 | inactive: -0.097 | inactive: -0.038 | inactive: 0.093 | inactive: 0.02 | inactive: -0.008 | inactive: -0.011 | inactive: -0.008 | inactive: -0.001 | inactive: 0.062 | inactive: 0.015 | inactive: -0.009 | inactive: 0.02 | inactive: -0.038 | inactive: -0.007 | inactive: -0.016 | inactive: -0.012 | inactive: 0.145
SF1 isoform 5 (UniProt Q15637) | inactive: -0.002 | inactive: -0.014 | inactive: 0 | inactive: -0.001 | inactive: -0.081 | inactive: -0.048 | inactive: 0 | inactive: 0.03 | inactive: 0.041 | inactive: -0.002 | inactive: 0.003 | inactive: 0.05 | inactive: -0.041 | inactive: -0.04 | inactive: -0.008 | inactive: 0.061 | inactive: -0.013 | inactive: -0.025 | inactive: -0.047 | inactive: 0.046
SETD3 (UniProt Q86TU7) | active: -0.254 | inactive: -0.132 | inactive: 0.009 | inactive: -0.086 | inactive: -0.022 | inactive: 0.052 | inactive: 0.017 | inactive: 0.048 | inactive: -0.013 | inactive: 0.03 | inactive: 0.007 | inactive: 0.051 | inactive: 0.076 | inactive: -0.012 | – | inactive: 0.021 | – | inactive: 0.012 | inactive: -0.026 | inactive: 0.059
SEPHS1 (UniProt P49903) | inactive: 0.041 | inactive: -0.114 | inactive: -0.024 | inactive: 0.01 | inactive: -0.055 | inactive: -0.039 | inactive: -0.02 | inactive: 0.008 | inactive: 0.026 | inactive: 0.06 | inactive: -0.025 | inactive: -0.004 | inactive: 0.039 | inactive: -0.039 | inactive: 0.055 | inactive: 0.038 | inactive: -0.007 | inactive: -0.009 | inactive: 0 | inactive: 0.039
SETMAR (UniProt Q53H47) | inactive: -0.135 | inactive: -0.065 | inactive: 0.048 | inactive: -0.037 | inactive: 0.014 | inactive: -0.002 | inactive: -0.044 | inactive: 0.004 | inactive: 0.018 | inactive: -0.009 | inactive: 0.077 | inactive: 0.036 | inactive: -0.028 | inactive: 0.134 | – | inactive: -0.129 | – | inactive: 0.003 | inactive: 0.024 | inactive: 0.164
SENP6 (UniProt Q9GZR1) | inactive: 0.029 | inactive: 0.115 | inactive: -0.077 | inactive: 0.088 | inactive: -0.016 | inactive: 0.016 | inactive: 0.028 | inactive: 0.039 | inactive: 0.066 | inactive: 0.076 | inactive: -0.016 | inactive: -0.015 | inactive: -0.134 | inactive: -0.002 | – | inactive: -0.056 | – | inactive: -0.046 | inactive: 0.006 | inactive: -0.046

Shown with tabs: part of the list above
Target	log2 fold change [1]	log2 fold change (filanesib)	log2 fold change (zotarolimus)	log2 fold change (idasanutlin)	log2 fold change (alisertib)	log2 fold change [2]	log2 fold change (gefitinib)	log2 fold change [3]	log2 fold change (lapatinib)	log2 fold change (pictilisib)	log2 fold change [4]	log2 fold change (crizotinib)	log2 fold change [5]	log2 fold change [6]	log2 fold change (duvelisib)	log2 fold change (gandotinib)	log2 fold change (tozasertib)	log2 fold change [7]	log2 fold change (doramapimod)	log2 fold change (ispinesib)
SLAIN2 (UniProt Q9P270)	inactive: 0.125	inactive: 0.002	inactive: -0.029	inactive: 0.119	inactive: -0.061	inactive: -0.082	inactive: 0.062	inactive: 0.03	inactive: 0.029	inactive: -0.026	inactive: -0.039	inactive: -0.024	inactive: 0.012	inactive: -0.022	inactive: -0.062	inactive: -0.096	inactive: -0.016	inactive: 0.018	inactive: 0.019	inactive: -0.048
SH3GLB2 (UniProt Q9NR46)	inactive: 0.016	inactive: 0.085	inactive: 0.052	inactive: 0.061	inactive: -0.011	inactive: -0.034	inactive: -0.004	inactive: -0.018	inactive: -0.04	inactive: 0.025	inactive: 0.031	inactive: -0.104	inactive: -0.101	inactive: 0.013	–	inactive: -0.183	–	inactive: 0.073	inactive: 0.013	inactive: -0.052
SEC63 (UniProt Q9UGP8)	inactive: 0.003	inactive: -0.015	inactive: 0.013	inactive: -0.097	inactive: -0.038	inactive: 0.093	inactive: 0.02	inactive: -0.008	inactive: -0.011	inactive: -0.008	inactive: -0.001	inactive: 0.062	inactive: 0.015	inactive: -0.009	inactive: 0.02	inactive: -0.038	inactive: -0.007	inactive: -0.016	inactive: -0.012	inactive: 0.145
SF1 isoform 5 (UniProt Q15637)	inactive: -0.002	inactive: -0.014	inactive: 0	inactive: -0.001	inactive: -0.081	inactive: -0.048	inactive: 0	inactive: 0.03	inactive: 0.041	inactive: -0.002	inactive: 0.003	inactive: 0.05	inactive: -0.041	inactive: -0.04	inactive: -0.008	inactive: 0.061	inactive: -0.013	inactive: -0.025	inactive: -0.047	inactive: 0.046
SETD3 (UniProt Q86TU7)	active: -0.254	inactive: -0.132	inactive: 0.009	inactive: -0.086	inactive: -0.022	inactive: 0.052	inactive: 0.017	inactive: 0.048	inactive: -0.013	inactive: 0.03	inactive: 0.007	inactive: 0.051	inactive: 0.076	inactive: -0.012	–	inactive: 0.021	–	inactive: 0.012	inactive: -0.026	inactive: 0.059
